Results published in paper PMC3792889.
Results are given in words; binding and its absence hold for the method and conditions named. Binding seen in cells or lysates may run through a third protein.

Amino acid sequences for entries named in this document (tags omitted).
UniProt P42859: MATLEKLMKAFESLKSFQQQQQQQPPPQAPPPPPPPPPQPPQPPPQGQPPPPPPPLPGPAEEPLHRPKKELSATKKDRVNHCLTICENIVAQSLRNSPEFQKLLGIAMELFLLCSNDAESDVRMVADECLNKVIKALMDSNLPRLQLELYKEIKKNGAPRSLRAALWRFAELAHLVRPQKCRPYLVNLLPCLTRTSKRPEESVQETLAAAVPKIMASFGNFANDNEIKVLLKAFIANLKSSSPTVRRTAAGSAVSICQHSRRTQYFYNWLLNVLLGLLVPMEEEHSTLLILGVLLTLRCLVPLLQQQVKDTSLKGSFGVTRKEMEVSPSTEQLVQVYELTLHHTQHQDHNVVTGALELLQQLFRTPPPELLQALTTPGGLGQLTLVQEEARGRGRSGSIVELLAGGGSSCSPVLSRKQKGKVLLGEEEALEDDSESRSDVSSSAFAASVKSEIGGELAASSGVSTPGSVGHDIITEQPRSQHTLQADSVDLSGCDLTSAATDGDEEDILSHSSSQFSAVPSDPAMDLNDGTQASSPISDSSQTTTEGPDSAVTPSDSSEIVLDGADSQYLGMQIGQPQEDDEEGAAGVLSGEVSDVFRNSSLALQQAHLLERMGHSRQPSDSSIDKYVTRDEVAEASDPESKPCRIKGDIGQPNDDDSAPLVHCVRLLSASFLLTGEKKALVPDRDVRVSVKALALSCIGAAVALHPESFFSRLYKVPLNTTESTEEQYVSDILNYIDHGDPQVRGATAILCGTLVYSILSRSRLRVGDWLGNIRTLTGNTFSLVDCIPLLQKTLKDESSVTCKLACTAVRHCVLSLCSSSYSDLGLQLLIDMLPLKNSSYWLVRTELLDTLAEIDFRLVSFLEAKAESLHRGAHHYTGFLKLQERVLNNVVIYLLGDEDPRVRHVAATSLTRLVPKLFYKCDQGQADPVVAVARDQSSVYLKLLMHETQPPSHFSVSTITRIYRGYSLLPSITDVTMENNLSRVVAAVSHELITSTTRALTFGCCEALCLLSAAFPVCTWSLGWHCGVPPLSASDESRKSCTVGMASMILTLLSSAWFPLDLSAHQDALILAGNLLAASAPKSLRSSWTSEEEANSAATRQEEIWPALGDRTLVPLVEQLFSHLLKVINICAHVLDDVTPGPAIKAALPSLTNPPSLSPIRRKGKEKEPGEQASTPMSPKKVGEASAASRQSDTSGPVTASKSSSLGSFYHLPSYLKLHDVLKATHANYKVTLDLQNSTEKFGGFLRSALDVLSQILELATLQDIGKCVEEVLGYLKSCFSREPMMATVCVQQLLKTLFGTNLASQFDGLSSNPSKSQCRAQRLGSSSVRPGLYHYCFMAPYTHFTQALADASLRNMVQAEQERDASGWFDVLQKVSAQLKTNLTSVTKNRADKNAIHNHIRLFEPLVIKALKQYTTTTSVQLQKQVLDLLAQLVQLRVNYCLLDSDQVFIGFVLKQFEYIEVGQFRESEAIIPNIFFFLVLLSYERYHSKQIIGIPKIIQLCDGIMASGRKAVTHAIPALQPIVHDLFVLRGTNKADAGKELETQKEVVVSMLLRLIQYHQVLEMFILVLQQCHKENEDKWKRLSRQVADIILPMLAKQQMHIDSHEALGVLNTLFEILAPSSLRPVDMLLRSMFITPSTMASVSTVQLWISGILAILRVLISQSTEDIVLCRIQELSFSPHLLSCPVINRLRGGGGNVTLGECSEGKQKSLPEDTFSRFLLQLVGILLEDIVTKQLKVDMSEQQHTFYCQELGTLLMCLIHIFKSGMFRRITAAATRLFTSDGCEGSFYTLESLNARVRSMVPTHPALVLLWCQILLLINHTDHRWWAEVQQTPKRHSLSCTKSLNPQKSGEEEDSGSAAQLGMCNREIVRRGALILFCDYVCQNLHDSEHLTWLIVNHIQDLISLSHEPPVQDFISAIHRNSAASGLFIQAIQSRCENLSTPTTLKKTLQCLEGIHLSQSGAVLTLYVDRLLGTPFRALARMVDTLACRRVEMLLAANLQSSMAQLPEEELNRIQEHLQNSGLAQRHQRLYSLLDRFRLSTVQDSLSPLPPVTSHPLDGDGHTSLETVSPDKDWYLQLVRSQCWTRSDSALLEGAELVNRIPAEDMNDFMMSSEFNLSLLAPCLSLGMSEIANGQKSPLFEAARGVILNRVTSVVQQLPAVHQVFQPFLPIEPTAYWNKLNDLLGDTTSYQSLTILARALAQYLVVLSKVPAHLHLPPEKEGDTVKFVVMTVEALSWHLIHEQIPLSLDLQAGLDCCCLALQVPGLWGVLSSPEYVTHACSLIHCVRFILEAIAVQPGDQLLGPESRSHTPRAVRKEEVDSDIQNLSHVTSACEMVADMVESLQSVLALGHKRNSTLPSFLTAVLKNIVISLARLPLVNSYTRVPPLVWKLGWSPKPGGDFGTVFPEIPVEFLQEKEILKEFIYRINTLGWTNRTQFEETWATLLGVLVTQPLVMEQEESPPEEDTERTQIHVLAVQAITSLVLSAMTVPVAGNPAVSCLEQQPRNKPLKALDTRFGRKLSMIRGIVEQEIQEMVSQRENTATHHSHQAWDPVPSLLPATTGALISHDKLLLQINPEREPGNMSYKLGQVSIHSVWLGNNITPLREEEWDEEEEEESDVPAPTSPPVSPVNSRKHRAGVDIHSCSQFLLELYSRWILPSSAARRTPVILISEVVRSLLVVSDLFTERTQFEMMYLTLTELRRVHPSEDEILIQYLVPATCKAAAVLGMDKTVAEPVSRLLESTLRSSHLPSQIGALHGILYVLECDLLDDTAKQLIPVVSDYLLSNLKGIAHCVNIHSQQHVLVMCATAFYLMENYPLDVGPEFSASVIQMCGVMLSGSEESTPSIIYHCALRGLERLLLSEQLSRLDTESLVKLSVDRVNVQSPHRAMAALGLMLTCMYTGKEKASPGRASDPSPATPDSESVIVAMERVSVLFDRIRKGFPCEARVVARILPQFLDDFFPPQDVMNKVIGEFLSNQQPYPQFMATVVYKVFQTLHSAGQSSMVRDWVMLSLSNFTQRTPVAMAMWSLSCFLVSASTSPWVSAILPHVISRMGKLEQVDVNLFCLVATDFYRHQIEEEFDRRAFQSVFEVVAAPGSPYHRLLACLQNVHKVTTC
UniProt Q60631: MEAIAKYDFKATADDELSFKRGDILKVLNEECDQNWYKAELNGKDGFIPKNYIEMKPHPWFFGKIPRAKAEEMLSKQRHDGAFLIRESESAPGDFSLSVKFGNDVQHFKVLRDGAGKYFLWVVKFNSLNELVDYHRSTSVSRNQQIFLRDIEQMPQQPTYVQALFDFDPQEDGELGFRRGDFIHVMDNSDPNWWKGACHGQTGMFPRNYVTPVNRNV

Tests used:
[1] = target: full-length wild type HTT with 7Q (endogenous, STHdhQ7/7 cells) (mouse (endogenous in STHdhQ7/7)) (UniProt P42859); experiment: co-IP; reverse: whole cell extracts of STHdhQ7/7 and STHdhQ111/111 cells; 200 ug extract incubated overnight with anti-Htt antibody and Protein A/G beads; blot with anti-Grb2 (12% SDS-PAGE)
[2] = target: Growth factor receptor protein binding protein 2 (Grb2), endogenous (mouse (endogenous in STHdhQ7/7, STHdhQ111/111 and Neuro2A cells)) (UniProt Q60631); experiment: co-IP; whole cell extracts of STHdhQ7/7 and STHdhQ111/111 cells; 200 ug extract incubated overnight with anti-Grb2 antibody and Protein A/G beads; blot with anti-Htt (6% SDS-PAGE)

| binding [1] | binding [2] | Substance |
| --- | --- | --- |
| no binding | – | Growth factor receptor protein binding protein 2 (Grb2), endogenous (from UniProt Q60631 1-217) |
| – | no binding | full-length wild type HTT with 7Q (endogenous, STHdhQ7/7 cells) (from UniProt P42859 1-3119) |
